Results taken from US20150376581.
Construct, isoform or probe ends are uncertain for at least one entry. Where cells or extracts were used, other partners may take part.

Molecular target: EGFR (epidermal growth factor receptor) on A431 cells (UniProt P00533)
Test: flow cytometry
Conditions: 2'-OMe at all nucleotides; 50 nM RNA, transcription buffer, 25 C 30 min; washes DPBS + 5 mM MgCl2; no-aptamer control; protein on the cell surface; protein details: A431 cells (ATCC)

**Q.** Does “GGCGCUCCGACCUUAGUCUCUGUGCCGCUAUAAUGCACGGAUUUAAUCGCCGUAGAAAAGCAUGUCAAAGCCGGAACCGUGUAGCACAGCAGA” bind?
**A.** Result: binds
